B1: P80314 (protein, UniProt P80314 1-535, looked up)
chain: MASLSLAPVNIFKAGADEERAETARLSSFIGAIAIGDLVKSTLGPKGMDKILLSSGRDAALMVTNDGATILKNIGVDNPAAKVLVDMSRVQDDEVGDGTTSVTVLAAELLREAESLIAKKIHPQTIISGWREATKAAREALLSSAVDHGSDEARFWQDLMNIAGTTLSSKLLTHHKDHFTKLAVEAVLRLKGSGNLEAIHVIKKLGGSLADSYLDEGFLLDKKIGVNQPKRIENAKILIANTGMDTDKIKIFGSRVRVDSTAKVAEIEHAEKEKMKEKVERILKHGINCFINRQLIYNYPEQLFGAAGVMAIEHADFAGVERLALVTGGEIASTFDHPELVKLGSCKLIEEVMIGEDKLIHFSGVALGEACTIVLRGATQQILDEAERSLHDALCVLAQTVKDPRTVYGGGCSEMLMAHAVTQLANRTPGKEAVAMESFAKALRMLPTIIADNAGYDSADLVAQLRAAHSEGHITAGLDMKEGTIGDMAVLGITESFQVKRQVLLSAAEAAEVILRVDNIIKAAPRKRVPDHHPC
modifications: full-length
B2: Q07797 (protein, UniProt Q07797 1-577, looked up)
chain: MALLWLLSVFLLVPGTQGTEDGDMRLVNGASANEGRVEIFYRGRWGTVCDNLWNLLDAHVVCRALGYENATQALGRAAFGPGKGPIMLDEVECTGTESSLASCRSLGWMVSRCGHEKDAGVVCSNDTTGLHILDLSGELSDALGQIFDSQQGCDLFIQVTGQGYEDLSLCAHTLILRTNPEAQALWQVVGSSVIMRVDAECMPVVRDFLRYFYSRRIEVSMSSVKCLHKLASAYGATELQDYCGRLFATLLPQDPTFHTPLDLYAYARATGDSMLEDLCVQFLAWNFEPLTQSESWSAVPTTLIQALLPKSELAVSSELDLLKAVDQWSTETIASHEDIERLVEQVRFPMMLPQELFELQFNLSLYQDHQALFQRKTMQALEFHTVPVEVLAKYKGLNLTEDTYKPRLYTSSTWSSLVMASTWRAQRYEYNRYNQLYTYGYGSVARYNSYQSFQTPQHPSFLFKDKQISWSATYLPTMQSCWNYGFSCTSNELPVLGLTTSSYSNPTIGYENRVLILCGGYSVVDVTSFEGSKAPIPTALDTNSSKTPSLFPCASGAFSSFRVVIRPFYLTNSTDMV
modifications: full-length
B3: P80315 (protein, UniProt P80315 1-539, looked up)
chain: MPENVASRSGAPTAGPGSRGKSAYQDRDKPAQIRFSNISAAKAVADAIRTSLGPKGMDKMIQDGKGDVTITNDGATILKQMQVLHPAARMLVELSKAQDIEAGDGTTSVVIIAGSLLDSCTKLLQKGIHPTIISESFQKALEKGLEILTDMSRPVQLSDRETLLNSATTSLNSKVVSQYSSLLSPMSVNAVMKVIDPATATSVDLRDIKIVKKLGGTIDDCELVEGLVLTQKVANSGITRVEKAKIGLIQFCLSAPKTDMDNQIVVSDYAQMDRVLREERAYILNLVKQIKKTGCNVLLIQKSILRDALSDLALHFLNKMKIMVVKDVEREDIEFICKTIGTKPVAHIDQFTADMLGSAELAEEVSLNGSGKLFKITGCTSPGKTVTIVVRGSNKLVIEEAERSIHDALCVIRCLVKKRALIAGGGAPEIELALRLTEYSRTLSGMESYCVRAFADAMEVIPSTLAENAGLNPISTVTELRNRHAQGEKTTGINVRKGGISNILEEMVVQPLLVSVSALTLATETVRSILKIDDVVNTR
modifications: full-length
B4: P80316 (protein, UniProt P80316 1-541, looked up)
chain: MASVGTLAFDEYGRPFLIIKDQDRKSRLMGLEALKSHIMAAKAVANTMRTSLGPNGLDKMMVDKDGDVTITNDGATILSMMDVDHQIAKLMVELSKSQDDEIGDGTTGVVVLAGALLEEAEQLLDRGIHPIRIADGYEQAARIAIQHLDKISDKVLVDINNPEPLIQTAKTTLGSKVINSCHRQMAEIAVNAVLTVADMERRDVDFELIKVEGKVGGRLEDTKLIKGVIVDKDFSHPQMPKKVVDAKIAILTCPFEPPKPKTKHKLDVMSVEDYKALQKYEKEKFEEMIKQIKETGANLAICQWGFDDEANHLLLQNGLPAVRWVGGPEIELIAIATGGRIVPRFSELTSEKLGFAGVVQEISFGTTKDKMLVIEKCKNSRAVTIFIRGGNKMIIEEAKRSLHDALCVIRNLIRDNRVVYGGGAAEISCALAVSQEADKCPTLEQYAMRAFADALEVIPMALSENSGMNPIQTMTEVRARQVKESNPALGIDCLHKGSNDMQYQHVIETLIGKKQQISLATQMVRMILKIDDIRKPGESEE
modifications: full-length
B5: Q02053 (protein, UniProt Q02053 1-1058, looked up)
chain: MSSSPLSKKRRVSGPDPKPGSNCSPAQSALSEVSSVPTNGMAKNGSEADIDESLYSRQLYVLGHEAMKMLQTSSVLVSGLRGLGVEIAKNIILGGVKAVTLHDQGTTQWADLSSQFYLREEDIGKNRAEVSQPRLAELNSYVPVTAYTGPLVEDFLSSFQVVVLTNSPLEAQLRVGEFCHSRGIKLVVADTRGLFGQLFCDFGEEMVLTDSNGEQPLSAMVSMVTKDNPGVVTCLDEARHGFETGDFVSFSEVQGMIQLNGCQPMEIKVLGPYTFSICDTSNFSDYIRGGIVSQVKVPKKISFKSLPASLVEPDFVMTDFAKYSRPAQLHIGFQALHQFCALHNQPPRPRNEEDATELVGLAQAVNARSPPSVKQNSLDEDLIRKLAYVAAGDLAPINAFIGGLAAQEVMKACSGKFMPIMQWLYFDALECLPEDKEALTEEKCLPRQNRYDGQVAVFGSDFQEKLSKQKYFLVGAGAIGCELLKNFAMIGLGCGEGGEVVVTDMDTIEKSNLNRQFLFRPWDVTKLKSDTAAAAVRQMNPYIQVTSHQNRVGPDTERIYDDDFFQNLDGVANALDNIDARMYMDRRCVYYRKPLLESGTLGTKGNVQVVIPFLTESYSSSQDPPEKSIPICTLKNFPNAIEHTLQWARDEFEGLFKQPAENVNQYLTDSKFVERTLRLAGTQPLEVLEAVQRSLVLQRPQTWGDCVTWACHHWHTQYCNNIRQLLHNFPPDQLTSSGAPFWSGPKRCPHPLTFDVNNTLHLDYVMAAANLFAQTYGLTGSQDRAAVASLLQSVQVPEFTPKSGVKIHVSDQELQSANASVDDSRLEELKATLPSPDKLPGFKMYPIDFEKDDDSNFHMDFIVAASNLRAENYDISPADRHKSKLIAGKIIPAIATTTAAVVGLVCLELYKVVQGHQQLDSYKNGFLNLALPFFGFSEPLAAPRHQYYNQEWTLWDRFEVQGLQPNGEEMTLKQFLDYFKTEHKLEITMLSQGVSMLYSFFMPAAKLKERLDQPMTEIVSRVSKRKLGRHVRALVLELCCNDESGEDVEVPYVRYTIR
modifications: full-length
B6: Q9ET01 (protein, UniProt Q9ET01 1-850, looked up)
chain: MAKPLTDQEKRRQISIRGIVGVENVAELKKGFNRHLHFTLVKDRNVATPRDYYFALAHTVRDHLVGRWIRTQQHYYDKCPKRVYYLSLEFYMGRTLQNTMINLGLQNACDEAIYQLGLDMEELEEIEEDAGLGNGGLGRLAACFLDSMATLGLAAYGYGIRYEYGIFNQKIREGWQVEEADDWLRHGNPWEKARPEFMLPVHFYGRVEHTQTGTKWVDTQVVLALPYDTPVPGYMNNTVNTMRLWSARAPNDFNLQDFNVGDYIQAVLDRNLAENISRVLYPNDNFFEGKELRLKQEYFVVAATLQDVIRRFKASKFGSKDGMGTVFDAFPDQVAIQLNDTHPALAIPELMRIFVDIEKLPWAKAWEITKKTFAYTNHTVLPEALERWPVELVEKLLPRHLEIIYEINQKHLDRIVALFPKDISRMRRMSLIEEEGGKRINMAHLCIVGCHAVNGVAKIHSDIVKTQVFKDFSELEPDKFQNKTNGITPRRWLLLCNPGLADLIAEKIGEDYVKDLSQLTKLHSFVSDDIFLREIAKVKQENKLKFSQFLEKEYKVKINPSSMFDVHVKRIHEYKRQLLNCLHVITMYNRIKKDPKKFFVPRTVIIGGKAAPGYHMAKMIIKLITSVAEVVNNDPMVGSKLKVIFLENYRVSLAEKVIPATDLSEQISTAGTEASGTGNMKFMLNGALTIGTMDGANVEMAEEAGEENLFIFGMRVDDVAALDKKGYEAKEYYEALPELKLVIDQIDNGFFSPNQPDLFKDIINMLFYHDRFKVFADYEAYVKCQEKVSQLYMNQKAWNTMVLKNIAASGKFSSDRTIKEYAKDIWNMEPSDLKISLSNESSNGVSANGK
modifications: full-length
B7: Q9D8N0 (protein, UniProt Q9D8N0 1-437, looked up)
chain: MAAGTLYTYPENWRAFKALIAAQYSGAQVRVLSAPPHFHFGQTNRTPEFLRKFPAGKVPAFEGDDGFCVFESNAIAYYVSNEELRGSTPEAAAQVVQWVSFADSDIVPPASTWVFPTLGIMHHNKQATENAKEEVKRILGLLDTHLKTRTFLVGERVTLADITVVCTLLWLYKQVLEPSFRQAFPNTNRWFLTCINQPQFRAILGEVKLCEKMAQFDAKKFAESQPKKDTPRKEKGSREEKQKPQAERKEEKKAAAPAPEEEMDECEQALAAEPKAKDPFAHLPKSTFVLDEFKRKYSNEDTLSVALPYFWEHFDKDGWSLWYAEYRFPEELTQTFMSCNLITGMFQRLDKLRKNAFASVILFGTNNSSSISGVWVFRGQELAFPLSPDWQVDYESYTWRKLDPGSEETQTLVREYFSWEGTFQHVGKAVNQGKIFK
modifications: full-length
B8: P22599 (protein, UniProt P22599 1-413, looked up)
chain: MTPSISWGLLLLAGLCCMVPSFLAEDVQETDTSQKDQSPASHEIATNLGDFAISLYRELVHQSNTSNIFFSPVSIATAFAMLSLGSKGDTHTQILEGLQFNLTQTSEADIHKSFQHLLQTLNRPDSELQLSTGNGLFVNNDLKLVEKFLEEAKNHYQAEVFSVNFAESEEAKKVINDFVEKGTQGKIVEAVKELDQDTVFALANYILFKGKWKKPFDPENTEEAEFHVDKSTTVKVPMMMLSGMLDVHHCSILSSWVLLMDYAGNASAVFLLPEDGKMQHLEQTLNKELISKILLNRRRRLVQIHIPRLSISGDYNLKTLMSPLGITRIFNNGADLSGITEENAPLKLSKAVHKAVLTIDETGTEAAAATVFEAVPMSMPPILRFDHPFLFIIFEEHTQSPIFVGKVVDPTHK
modifications: full-length

Tested on: CA19-9 modified proteins
Experiment: CA19-9 IP/MS (iTRAQ) of organoid conditioned media after Dox treatment
Parameters: species or system mouse
Settings: CA19-9 IP/MS relative abundance; for 17 0H NS19 / 17 8H 5B1 / 17 8H NS19: A217 (genetic negative) organoid conditioned media; for 17 0H NS19 / 20 0H 5B1: 0H (before treatment); for 17 0H NS19 / 17 8H NS19: IP with NS19-9; for 17 0H NS19: reference channel = 1; for 17 8H 5B1 / 17 8H NS19: after 8 hours; for 17 8H 5B1 / 20 0H 5B1: IP with 5B1; for 20 0H 5B1: A220 (C;R^LSL;F) organoid conditioned media

| Molecule | 17 0H NS19 | 17 8H 5B1 | 17 8H NS19 | 20 0H 5B1 |
| --- | --- | --- | --- | --- |
| B1 | 1 | 2.255 | 0.712 | 1.964 |
| B2 | 1 | 4.679 | 0.777 | 4.024 |
| B3 | 1 | 2.546 | 0.596 | 2.235 |
| B4 | 1 | 2.923 | 0.44 | 2.631 |
| B5 | 1 | 3.389 | 0.563 | 2.73 |
| B6 | 1 | 2.313 | 0.651 | 1.898 |
| B7 | 1 | 3.944 | 0.711 | 3.488 |
| B8 | 1 | 0.39 | 1.003 | 0.277 |
